{
  "sequences": {"note": "Chains of the proteins cited; added tags and fusions are not shown.", "UniProt Q8TCW9": "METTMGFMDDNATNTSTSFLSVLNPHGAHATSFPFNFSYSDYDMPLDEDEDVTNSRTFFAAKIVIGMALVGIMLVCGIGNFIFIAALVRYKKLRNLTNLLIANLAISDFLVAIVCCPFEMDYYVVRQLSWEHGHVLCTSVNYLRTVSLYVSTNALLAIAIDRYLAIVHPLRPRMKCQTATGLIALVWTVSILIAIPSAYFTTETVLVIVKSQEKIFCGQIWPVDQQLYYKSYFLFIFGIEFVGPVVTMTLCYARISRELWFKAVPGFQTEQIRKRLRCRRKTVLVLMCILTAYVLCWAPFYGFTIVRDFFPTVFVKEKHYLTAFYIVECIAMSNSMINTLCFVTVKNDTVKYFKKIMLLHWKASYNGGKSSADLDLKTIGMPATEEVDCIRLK"},
  "source": "paper PMC3338534",
  "binders": {"B1": {"name": "EG-VEGF (Prokineticin 1) (ligand, UniProt P58294 20-105)", "chain": "AVITGACERDVQCGAGTCCAISLWLRGLRMCTPLGREGEECHPGSHKVPFFRKRKHHTCPCLPNLLCSRFPDGRYRCSMDLKNINF"}},
  "key": {"[1]": {"target": "LE-EG-VEGFR1, N-terminal FLAG (human) (UniProt Q8TCW9)", "experiment": "co-sedimentation; E. coli membrane proteoliposomes treated with thrombin to remove the LE leader, incubated overnight at 4°C with EG-VEGF in PBS, extensively washed and pelleted by centrifugation; pellet analysed by SDS-PAGE and immuno-blot with anti-EG-VEGF antibody; only the binder purified"}, "[2]": {"target": "LE-EG-VEGFR1, C-terminal FLAG (human) (UniProt Q8TCW9)", "experiment": "co-sedimentation; E. coli membrane proteoliposomes treated with thrombin to remove the LE leader, incubated overnight at 4°C with EG-VEGF in PBS, extensively washed and pelleted by centrifugation; pellet analysed by SDS-PAGE and immuno-blot with anti-EG-VEGF antibody; only the binder purified"}},
  "note": "No constants are given. Whether binding was seen depends on the method and setting. Binding seen in cells or lysates may run through a third protein. Some results given as binding are weak or reduced against the parent protein; the word gives no strength.",
  "data": [
    {"binder": "B1", "values": [
      {"measurement": "binding", "setting": "[1]", "value": "binds"},
      {"measurement": "binding", "setting": "[2]", "value": "binds"}
    ]}
  ]
}
